Measurements reported in PubChem BioAssay AID1508597 (Cure First, 2020).

Screen: 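Survival screen with siRNA in ovarian cancer cells derived from patients, with or without rucaparib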 (primary screen)
Cells: human ovarian carcinoma lines grown from tumours: OCI-P5x (papillary serous) and OCI-C5x (clear cell)
Knock-down reagent: siRNA pool against human genes, 1.25 pmol siRNA per well
Time to read-out: 72 h or 96 h, depending on the cell culture
Treatment: rucaparib 20 µM (about IC30) or vehicle, present until read-out
Measured: 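Luminescent ATP-based viability assay read 72 or 96 h after transfection, depending on culture, given as normalised percent viability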
Scale: viability, normalised: higher = more viable cells remaining
Rule for the call: 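a well counts as a hit if its normalised viability is under 80 percent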
Calls: active = viability under 80%; inactive = viability 80% or more
This is an unselected part of about 2,100 deposited reagents. 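Calls flag viability under 80% in either arm, not effects specific to rucaparib; the reference for percent is not stated.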 A number with no mark means an inactive call. The record does not give: the 100% reference.

SP3 (GeneID 6670), rucaparib or vehicle Rucaparib, cell line OCI-C5x (clear cell), technical replicate 1 scored viability, normalised (%) = 37.1 (active). SP3 (GeneID 6670), rucaparib or vehicle Rucaparib, cell line OCI-C5x (clear cell), technical replicate 2 showed viability, normalised (%) = 30.3 (active). SP3 (GeneID 6670), rucaparib or vehicle Rucaparib, cell line OCI-C5x (clear cell), technical replicate 3 scored viability, normalised (%) = 25.3 (active). SP3 (GeneID 6670), rucaparib or vehicle Rucaparib, cell line OCI-P5x (serous), technical replicate 1 showed viability, normalised (%) = 46.2 (active). With SP3 (GeneID 6670), rucaparib or vehicle Rucaparib, cell line OCI-P5x (serous), technical replicate 2, the values are viability, normalised (%) = 47.1 (active). SP3 (GeneID 6670), rucaparib or vehicle Rucaparib, cell line OCI-P5x (serous), technical replicate 3 scored viability, normalised (%) = 55.5 (active).

SP3 (GeneID 6670), rucaparib or vehicle Vehicle, cell line OCI-C5x (clear cell), technical replicate 1 scored viability, normalised (%) = 23.9 (active). For SP3 (GeneID 6670), rucaparib or vehicle Vehicle, cell line OCI-C5x (clear cell), technical replicate 2, the values are viability, normalised (%) = 20.3 (active). For SP3 (GeneID 6670), rucaparib or vehicle Vehicle, cell line OCI-C5x (clear cell), technical replicate 3 the deposit lists viability, normalised (%) = 29.9 (active). SP3 (GeneID 6670), rucaparib or vehicle Vehicle, cell line OCI-P5x (serous), technical replicate 1 gave viability, normalised (%) = 45.3 (active). SP3 (GeneID 6670), rucaparib or vehicle Vehicle, cell line OCI-P5x (serous), technical replicate 2 showed viability, normalised (%) = 49.8 (active). SP3 (GeneID 6670), rucaparib or vehicle Vehicle, cell line OCI-P5x (serous), technical replicate 3 showed viability, normalised (%) = 100.

A run of entries of the results above, as a working copy:
SP3 (GeneID 6670), rucaparib or vehicle Rucaparib, cell line OCI-C5x (clear cell), technical replicate 1: viability, normalised (%) = 37.1 (active)
SP3 (GeneID 6670), rucaparib or vehicle Rucaparib, cell line OCI-C5x (clear cell), technical replicate 2: viability, normalised (%) = 30.3 (active)

The results go on.
POU4F1 (GeneID 5457), rucaparib or vehicle Rucaparib, cell line OCI-C5x (clear cell), technical replicate 1 showed viability, normalised (%) = 52.8 (active). With POU4F1 (GeneID 5457), rucaparib or vehicle Rucaparib, cell line OCI-C5x (clear cell), technical replicate 2, the entry reads viability, normalised (%) = 49.9 (active). POU4F1 (GeneID 5457), rucaparib or vehicle Rucaparib, cell line OCI-C5x (clear cell), technical replicate 3 gave viability, normalised (%) = 46.4 (active). With POU4F1 (GeneID 5457), rucaparib or vehicle Rucaparib, cell line OCI-P5x (serous), technical replicate 1 the deposit lists viability, normalised (%) = 50 (active). POU4F1 (GeneID 5457), rucaparib or vehicle Rucaparib, cell line OCI-P5x (serous), technical replicate 2 scored viability, normalised (%) = 48.1 (active). POU4F1 (GeneID 5457), rucaparib or vehicle Rucaparib, cell line OCI-P5x (serous), technical replicate 3 scored viability, normalised (%) = 43.1 (active).

POU4F1 (GeneID 5457), rucaparib or vehicle Vehicle, cell line OCI-C5x (clear cell), technical replicate 1 gave viability, normalised (%) = 34.8 (active). POU4F1 (GeneID 5457), rucaparib or vehicle Vehicle, cell line OCI-C5x (clear cell), technical replicate 2 scored viability, normalised (%) = 45.7 (active). POU4F1 (GeneID 5457), rucaparib or vehicle Vehicle, cell line OCI-C5x (clear cell), technical replicate 3 showed viability, normalised (%) = 47 (active). POU4F1 (GeneID 5457), rucaparib or vehicle Vehicle, cell line OCI-P5x (serous), technical replicate 1 showed viability, normalised (%) = 61.7 (active). POU4F1 (GeneID 5457), rucaparib or vehicle Vehicle, cell line OCI-P5x (serous), technical replicate 2 gave viability, normalised (%) = 57.6 (active). POU4F1 (GeneID 5457), rucaparib or vehicle Vehicle, cell line OCI-P5x (serous), technical replicate 3 showed viability, normalised (%) = 45.8 (active).

MAP4K5 (GeneID 11183), rucaparib or vehicle Rucaparib, cell line OCI-C5x (clear cell), technical replicate 1 scored viability, normalised (%) = 62.3 (active). For MAP4K5 (GeneID 11183), rucaparib or vehicle Rucaparib, cell line OCI-C5x (clear cell), technical replicate 2, the entry reads viability, normalised (%) = 79.5 (active). With MAP4K5 (GeneID 11183), rucaparib or vehicle Rucaparib, cell line OCI-C5x (clear cell), technical replicate 3, the entry reads viability, normalised (%) = 53.8 (active). MAP4K5 (GeneID 11183), rucaparib or vehicle Rucaparib, cell line OCI-P5x (serous), technical replicate 1 gave viability, normalised (%) = 91.3. For MAP4K5 (GeneID 11183), rucaparib or vehicle Rucaparib, cell line OCI-P5x (serous), technical replicate 2 the deposit lists viability, normalised (%) = 94.1. For MAP4K5 (GeneID 11183), rucaparib or vehicle Rucaparib, cell line OCI-P5x (serous), technical replicate 3, the entry reads viability, normalised (%) = 82.7.

MAP4K5 (GeneID 11183), rucaparib or vehicle Vehicle, cell line OCI-C5x (clear cell), technical replicate 1 showed viability, normalised (%) = 91.1. With MAP4K5 (GeneID 11183), rucaparib or vehicle Vehicle, cell line OCI-C5x (clear cell), technical replicate 2, the values are viability, normalised (%) = 52.5 (active). For MAP4K5 (GeneID 11183), rucaparib or vehicle Vehicle, cell line OCI-C5x (clear cell), technical replicate 3, the values are viability, normalised (%) = 45.9 (active). With MAP4K5 (GeneID 11183), rucaparib or vehicle Vehicle, cell line OCI-P5x (serous), technical replicate 1 the deposit lists viability, normalised (%) = 91.5. For MAP4K5 (GeneID 11183), rucaparib or vehicle Vehicle, cell line OCI-P5x (serous), technical replicate 2, the entry reads viability, normalised (%) = 85. MAP4K5 (GeneID 11183), rucaparib or vehicle Vehicle, cell line OCI-P5x (serous), technical replicate 3 scored viability, normalised (%) = 86.8.
